Results taken from article PMC7526551 (JCI Insight, 2020).
Results are given in words; binding and its absence hold for the method and conditions named. For part of these data: Binding seen in cells or lysates may run through a third protein. Some results given as binding are weak or reduced against the parent protein; the word gives no strength. Values belong to the molecule of their own block, whether it stands above or below them.

Tests used:
[1] = biological target: T1, NUPR1 (endogenous, MiaPaCa-2 cells) (human (endogenous in MiaPaCa-2)) (UniProt O60356); experiment: proximity ligation; Duolink In Situ on fixed, permeabilized MiaPaCa-2 cells (transfected with importin-α3–Flag or NUPR1-Flag, or untransfected); mouse anti-Flag or anti-γH2AX with rabbit anti-NUPR1, anti-MRE11 or anti-TP53; cells untreated or treated with ZZW-115 (5 μM, 6 h; or 1.5 μM, 24 h), 5-FU (10 μM, 24 h) or …
T1 sequence: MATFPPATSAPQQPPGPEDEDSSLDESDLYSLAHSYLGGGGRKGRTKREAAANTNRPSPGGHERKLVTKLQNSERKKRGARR

[2] = biological target: T2, NUPR1 (recombinant, purified) (UniProt O60356); experiment: intrinsic fluorescence spectra (complex against the sum of the isolated proteins); 25°C, 10 μM NUPR1 and 5 μM importin-α3, excitation at 280 or 295 nm; both purified
T2 sequence: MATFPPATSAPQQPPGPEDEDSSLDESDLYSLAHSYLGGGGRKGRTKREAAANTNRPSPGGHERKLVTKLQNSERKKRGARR

[3] = biological target: importin-α3 (residues 1–520), recombinant (UniProt O00629); experiment: ITC; reverse titration: NUPR1 in the syringe, importin-α3 in the calorimetric cell, Tris 50 mM pH 8, 25°C; both purified

binding [1]: binds
Molecule: importin-α3–Flag (from UniProt O00629 1-521)

binding [2]: binds
B1: importin-α3 (residues 1–520), recombinant (domain or fragment, UniProt O00629 1-520, looked up)
chain: MADNEKLDNQRLKNFKNKGRDLETMRRQRNEVVVELRKNKRDEHLLKRRNVPHEDICEDSDIDGDYRVQNTSLEAIVQNASSDNQGIQLSAVQAARKLLSSDRNPPIDDLIKSGILPILVHCLERDDNPSLQFEAAWALTNIASGTSEQTQAVVQSNAVPLFLRLLHSPHQNVCEQAVWALGNIIGDGPQCRDYVISLGVVKPLLSFISPSIPITFLRNVTWVMVNLCRHKDPPPPMETIQEILPALCVLIHHTDVNILVDTVWALSYLTDAGNEQIQMVIDSGIVPHLVPLLSHQEVKVQTAALRAVGNIVTGTDEQTQVVLNCDALSHFPALLTHPKEKINKEAVWFLSNITAGNQQQVQAVIDANLVPMIIHLLDKGDFGTQKEAAWAISNLTISGRKDQVAYLIQQNVIPPFCNLLTVKDAQVVQVVLDGLSNILKMAEDEAETIGNLIEECGGLEKIEQLQNHENEDIYKLAYEIIDQFFSSDDIDEDPSLVPEAIQGGTFGFNSSANVPTEGFQ
notes: importin-α3 (KPNA4), residues 1–520, codon-optimized synthetic vector (Nzytech); called a 58 kDa protein with 6 tryptophans; also called KPNA4; importin-alpha3; source: final Superdex G200 16/60

binding [3]: binds
B2: NUPR1 (recombinant, purified) (natural protein, UniProt O60356 1-82, looked up)
chain: MATFPPATSAPQQPPGPEDEDSSLDESDLYSLAHSYLGGGGRKGRTKREAAANTNRPSPGGHERKLVTKLQNSERKKRGARR
notes: Nuclear Protein 1 (NUPR1), described as an intrinsically disordered protein of 82 amino acids with two tyrosines (Tyr30, Tyr36); also called Nuclear Protein 1; rNUPR1; source: expressed and purified as described (12)
